This continues a long series; more values of the same kind are listed elsewhere.
Test system: HEK293T nuclear lysates
Experiment: SILAC‐based pull‐down proteomics H4K5me1/H4K5 (probes 6/5)
Type: binding, human

probe 6: H4K5me peptide probe with photo‐arginine R(dz) and K(biotin) (SGRGKGGKGLGKGGK; photo-arginine R(dz) at 3; monomethyl-lysine at 5; K(biotin) at 15)
C6 log (H4K5me/H4K5) (protein Q8IVW6 ARID3B, run C6): 0.5018
B6 log2 (H4K5me/H4K5) (protein Q8N1G0 ZNF687, run B6): 1.472
C6 log (H4K5me/H4K5) (protein Q8N1G0 ZNF687, run C6): 1.472
B6 log2 (H4K5me/H4K5) (protein Q8N3U4 STAG2, run B6): 1.1765
C6 log (H4K5me/H4K5) (protein Q8N3U4 STAG2, run C6): 1.1765
B6 log2 (H4K5me/H4K5) (protein Q8N9T8 KRI1, run B6): 0.1247
C6 log (H4K5me/H4K5) (protein Q8N9T8 KRI1, run C6): -0.00452
B6 log2 (H4K5me/H4K5) (protein Q8NE71 ABCF1, run B6): 0.6526
C6 log (H4K5me/H4K5) (protein Q8NE71 ABCF1, run C6): 0.6526
B6 log2 (H4K5me/H4K5) (protein Q8TEX9 IPO4, run B6): 0.2773
C6 log (H4K5me/H4K5) (protein Q8TEX9 IPO4, run C6): 0.1155
B6 log2 (H4K5me/H4K5) (protein Q9BR76 CORO1B, run B6): 0.2695
C6 log (H4K5me/H4K5) (protein Q9BR76 CORO1B, run C6): 0.2946
B6 log2 (H4K5me/H4K5) (protein Q9BVA1 TUBB2B, run B6): 0.275
C6 log (H4K5me/H4K5) (protein Q9BVA1 TUBB2B, run C6): 0.3193
B6 log2 (H4K5me/H4K5) (protein Q9H0D6 XRN2, run B6): 0.3354
C6 log (H4K5me/H4K5) (protein Q9H0D6 XRN2, run C6): 0.1529
B6 log2 (H4K5me/H4K5) (protein Q9H4L4 SENP3, run B6): 0.6358
C6 log (H4K5me/H4K5) (protein Q9H4L4 SENP3, run C6): 0.6358
B6 log2 (H4K5me/H4K5) (protein Q9HB71 CACYBP, run B6): 0.3301
C6 log (H4K5me/H4K5) (protein Q9HB71 CACYBP, run C6): 0.2706
B6 log2 (H4K5me/H4K5) (protein Q9HC35 EML4, run B6): 0.4829
C6 log (H4K5me/H4K5) (protein Q9HC35 EML4, run C6): 0.2579
B6 log2 (H4K5me/H4K5) (protein Q9NPJ6 MED4, run B6): 0.3438
C6 log (H4K5me/H4K5) (protein Q9NPJ6 MED4, run C6): 0.2919
B6 log2 (H4K5me/H4K5) (protein Q9NQW6 ANLN, run B6): 0.4347
C6 log (H4K5me/H4K5) (protein Q9NQW6 ANLN, run C6): 0.05664
B6 log2 (H4K5me/H4K5) (protein Q9NX58 LYAR, run B6): 0.2731
C6 log (H4K5me/H4K5) (protein Q9NX58 LYAR, run C6): 0.3089
B6 log2 (H4K5me/H4K5) (protein Q9NYF8 BCLAF1, run B6): 0.1257
C6 log (H4K5me/H4K5) (protein Q9NYF8 BCLAF1, run C6): 0.06966
B6 log2 (H4K5me/H4K5) (protein Q9UGP8 SEC63, run B6): 0.3336
C6 log (H4K5me/H4K5) (protein Q9UGP8 SEC63, run C6): 0.1543
B6 log2 (H4K5me/H4K5) (protein Q9Y2W2 WBP11, run B6): 0.1222
C6 log (H4K5me/H4K5) (protein Q9Y2W2 WBP11, run C6): -0.1351
B6 log2 (H4K5me/H4K5) (protein Q9Y3B9 RRP15, run B6): 0.3025
C6 log (H4K5me/H4K5) (protein Q9Y3B9 RRP15, run C6): 0.1866
B6 log2 (H4K5me/H4K5) (protein Q9Y277 VDAC3, run B6): 0.3994
C6 log (H4K5me/H4K5) (protein Q9Y277 VDAC3, run C6): 0.7044
B6 log2 (H4K5me/H4K5) (protein Q9Y450 HBS1L, run B6): 0.5678
C6 log (H4K5me/H4K5) (protein Q9Y450 HBS1L, run C6): 0.5678
B6 log2 (H4K5me/H4K5) (protein Q9Y617 PSAT1, run B6): 0.4443
C6 log (H4K5me/H4K5) (protein Q9Y617 PSAT1, run C6): 0.9008
B6 log2 (H4K5me/H4K5) (protein Q53F19 C17orf85, run B6): 0.5032
C6 log (H4K5me/H4K5) (protein Q53F19 C17orf85, run C6): 0.5032
B6 log2 (H4K5me/H4K5) (protein Q86W42 THOC6, run B6): 0.5386
C6 log (H4K5me/H4K5) (protein Q86W42 THOC6, run C6): 0.5386
B6 log2 (H4K5me/H4K5) (protein Q86XP3 DDX42, run B6): 0.1334
C6 log (H4K5me/H4K5) (protein Q86XP3 DDX42, run C6): 0.3856
B6 log2 (H4K5me/H4K5) (protein Q96DI7 SNRNP40, run B6): 0.4677
C6 log (H4K5me/H4K5) (protein Q96DI7 SNRNP40, run C6): -0.1362
B6 log2 (H4K5me/H4K5) (protein Q96I25 RBM17, run B6): 1.457
C6 log (H4K5me/H4K5) (protein Q96I25 RBM17, run C6): 1.457
B6 log2 (H4K5me/H4K5) (protein Q96IZ0 PAWR, run B6): 0.1321
C6 log (H4K5me/H4K5) (protein Q96IZ0 PAWR, run C6): -0.08445
B6 log2 (H4K5me/H4K5) (protein Q96JB3 HIC2, run B6): 0.3777
C6 log (H4K5me/H4K5) (protein Q96JB3 HIC2, run C6): 0.2014
B6 log2 (H4K5me/H4K5) (protein Q01081 U2AF1, run B6): 0.287
C6 log (H4K5me/H4K5) (protein Q01081 U2AF1, run C6): 0.1163
B6 log2 (H4K5me/H4K5) (protein Q04917 YWHAH, run B6): 1.21
C6 log (H4K5me/H4K5) (protein Q04917 YWHAH, run C6): 1.21
B6 log2 (H4K5me/H4K5) (protein Q06587 RING1, run B6): 0.3761
C6 log (H4K5me/H4K5) (protein Q06587 RING1, run C6): 0.01192
B6 log2 (H4K5me/H4K5) (protein Q07955 SRSF1, run B6): 0.2855
C6 log (H4K5me/H4K5) (protein Q07955 SRSF1, run C6): 0.2077
B6 log2 (H4K5me/H4K5) (protein Q08945 SSRP1, run B6): 0.3762
C6 log (H4K5me/H4K5) (protein Q08945 SSRP1, run C6): 0.3612
B6 log2 (H4K5me/H4K5) (protein Q13769 THOC5, run B6): 0.3716
C6 log (H4K5me/H4K5) (protein Q13769 THOC5, run C6): 0.04753
B6 log2 (H4K5me/H4K5) (protein Q13838 DDX39B, run B6): 0.1205
C6 log (H4K5me/H4K5) (protein Q13838 DDX39B, run C6): 0.01208
B6 log2 (H4K5me/H4K5) (protein Q14566 MCM6, run B6): 0.1312
C6 log (H4K5me/H4K5) (protein Q14566 MCM6, run C6): 0.07396
B6 log2 (H4K5me/H4K5) (protein Q14669 TRIP12, run B6): 0.5234
C6 log (H4K5me/H4K5) (protein Q14669 TRIP12, run C6): 0.5234
B6 log2 (H4K5me/H4K5) (protein Q15007 WTAP, run B6): 0.3545
C6 log (H4K5me/H4K5) (protein Q15007 WTAP, run C6): 0.2255
B6 log2 (H4K5me/H4K5) (protein Q15061 WDR43, run B6): 0.1445
C6 log (H4K5me/H4K5) (protein Q15061 WDR43, run C6): 0.005576
B6 log2 (H4K5me/H4K5) (protein Q15424 SAFB, run B6): 0.396
C6 log (H4K5me/H4K5) (protein Q15424 SAFB, run C6): 0.2002
B6 log2 (H4K5me/H4K5) (protein Q15691 MAPRE1, run B6): 0.124
C6 log (H4K5me/H4K5) (protein Q15691 MAPRE1, run C6): -0.1558
B6 log2 (H4K5me/H4K5) (protein Q16527 CSRP2, run B6): 0.4687
C6 log (H4K5me/H4K5) (protein Q16527 CSRP2, run C6): 0.5019
B6 log2 (H4K5me/H4K5) (protein Q92541 RTF1, run B6): 0.277
C6 log (H4K5me/H4K5) (protein Q92541 RTF1, run C6): 0.001749
B6 log2 (H4K5me/H4K5) (protein Q92576 PHF3, run B6): 0.2896
C6 log (H4K5me/H4K5) (protein Q92576 PHF3, run C6): 0.2433
B6 log2 (H4K5me/H4K5) (protein Q92922 SMARCC1, run B6): 0.1177
C6 log (H4K5me/H4K5) (protein Q92922 SMARCC1, run C6): 0.1599
B6 log2 (H4K5me/H4K5) (protein Q99496 RNF2, run B6): 0.1375
C6 log (H4K5me/H4K5) (protein Q99496 RNF2, run C6): -0.8366
B6 log2 (H4K5me/H4K5) (protein Q99714 HSD17B10, run B6): 0.3957
C6 log (H4K5me/H4K5) (protein Q99714 HSD17B10, run C6): -0.4382
B6 log2 (H4K5me/H4K5) (protein Q99986 VRK1, run B6): 0.2848
C6 log (H4K5me/H4K5) (protein Q99986 VRK1, run C6): 0.4336
B6 log2 (H4K5me/H4K5) (protein RAB18 (Q9NP72), run B6): 0.0489
C6 log (H4K5me/H4K5) (protein RAB18 (Q9NP72), run C6): -0.1017
B6 log2 (H4K5me/H4K5) (protein RAD18 (Q9NS91), SILAC run B6): -0.2589
C6 log (H4K5me/H4K5) (protein RAD18 (Q9NS91), SILAC run C6): -0.1846
B6 log2 (H4K5me/H4K5) (protein RAD51AP1 (Q96B01), SILAC run B6): -0.3001
C6 log (H4K5me/H4K5) (protein RAD51AP1 (Q96B01), SILAC run C6): 0.009603
B6 log2 (H4K5me/H4K5) (protein RAN (P62826), run B6): 0.07765
C6 log (H4K5me/H4K5) (protein RAN (P62826), run C6): 0.004508
B6 log2 (H4K5me/H4K5) (protein RANBP1 (P43487), run B6): 0.09393
C6 log (H4K5me/H4K5) (protein RANBP1 (P43487), run C6): 0.1855
B6 log2 (H4K5me/H4K5) (protein RANBP2 (P49792), run B6): 0.0178
C6 log (H4K5me/H4K5) (protein RANBP2 (P49792), run C6): 0.2411
B6 log2 (H4K5me/H4K5) (protein RANBP3 (Q9H6Z4), SILAC run B6): -0.3884
C6 log (H4K5me/H4K5) (protein RANBP3 (Q9H6Z4), SILAC run C6): -0.3026
B6 log2 (H4K5me/H4K5) (protein RANGAP1 (P46060), run B6): 0.08611
C6 log (H4K5me/H4K5) (protein RANGAP1 (P46060), run C6): 0.09539
